Measurements: paper PMC5087665
These are yes or no findings as the source states them, for the method shown. Binding seen in cells or lysates may run through a third protein. Binding can be weak; no strength is given. Where a sequence is shown, tags or fusion partners need not be part of it.

How the values were obtained:
[1] = target: T1, GST–RP2 (retinitis pigmentosa 2) (UniProt O75695); assay: pull-down; Fig. 6C: HEK293T lysates expressing Myc–Rab8-wt, -QL or -TN with bead-immobilized GST–RP2, GST–RP2-C86Y, P95L or GST; blotted for Myc–Rab8 and endogenous TNPO1; only the target purified
T1 sequence: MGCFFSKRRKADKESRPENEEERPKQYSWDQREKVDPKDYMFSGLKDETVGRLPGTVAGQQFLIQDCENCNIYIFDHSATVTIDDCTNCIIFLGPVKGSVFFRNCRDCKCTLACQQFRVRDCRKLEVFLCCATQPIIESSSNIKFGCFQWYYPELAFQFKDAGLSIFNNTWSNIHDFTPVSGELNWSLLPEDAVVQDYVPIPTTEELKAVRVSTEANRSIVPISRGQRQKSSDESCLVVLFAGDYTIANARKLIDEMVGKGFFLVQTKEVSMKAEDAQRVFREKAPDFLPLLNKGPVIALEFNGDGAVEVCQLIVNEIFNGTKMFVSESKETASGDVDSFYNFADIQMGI

[2] = target: T1, GST–RP2 (retinitis pigmentosa 2); assay: pull-down; Fig. 6B: HEK293T lysates co-expressing GFP–TNPO1 and Myc–Rab8-wt, -QL or -TN with bead-immobilized GST–f-CTS, GST–rhodopsin-CTS, GST–RP2 or GST; blotted for Myc–Rab8 and GFP–TNPO1; only the target purified

Myc–Rab8-TN (GDP-locked mutant) (enzyme)
binding [1]: binds
binding [2]: binds
